Patent US10551384B2, “MTOR kinase mutations and methods of use thereof” (RUTGERS, THE STATE UNIVERSITY OF NEW JERSEY, priority 2016, dated 2020)
At least one structure is not confirmed: it was looked up by name or label, or the drawing left a doubt.

Tests used:
Format in all cases: cell-based, human
[1] = test system: Flag-mTOR(L2185A) in HEK293T cells; experiment: mTOR signaling immunoblot in HEK293T cells transiently expressing Flag-mTOR(L2185A); conditions: various concentrations, 1 hr, vs WT Flag-mTOR
Description: (FIG. 10A) Flag-mTOR(L2185A), when transiently expressed in HEK293T cells, confers drug resistance to mTOR kinase inhibitors. HEK293T cells transiently expressing WT and L2185A mutant Flag-mTOR were treated with various concentrations of INK-128, OSI-027 for 1 hr. The effect on the level of P-S6K, S6K, P-4E-BP1, 4EB-P1, P-AKT and AKT was analyzed by immunoblot. (FIG. 10B) Sequencing verification of genome-engineered SW480 and H460 cells carrying homozygous and heterozygous L2185A mutations in mTOR locus. (FIG. 10C) Independent clones of engineered SW480 cells confer similar drug resistance. Cells were treated with various concentrations of AZD8055 and INK-128 for 2 days. Cell growth was measured by SRB assay. Clones #1, 3 carry heterozygous L2185A mutation. Clones #2, 4 carry homozygous L2185A mutation. Data represent means±SD in three independent experiments. (FIG. 10D) SW480 cells carrying heterozygous and homozygous mTOR(L2185A) mutant alleles have similar drug resistance to mTOR kinase inhibitors. SW480 cells carrying homozygous WT and L2185A mutant mTOR alleles were treated with various concentrations of AZD8055, INK-128, OSI-027, and PP242 for 2 days. Cell growth was measured by SRB assay. […] Cell growth was measured by SRB assay. […] The effect on level of P-S6K, P-4E-BP1 and P-AKT was analyzed by immunoblot. […] The growth of H460 cells was measured by SRB assay. […]

[2] = test system: mTORC1 and mTORC2 signaling in SW480 mTOR(L2185A) cells; experiment: mTORC1/mTORC2 signaling immunoblot in SW480 cells carrying L2185A mutant mTOR; conditions: various concentrations, 1 hr, immunoblot of P-S6K, P-4E-BP1, P-AKT
Description: (FIG. 5A) SW480 cells carrying homozygous WT mTOR or L2185A mutant alleles were treated with various concentrations of AZD8055, INK-128, OSI-027 and PP242 for 2 day. Growth of SW480 cells was measured by SRB assay. Data represent means±SD in three independent experiments. (FIG. 5B) SW480 cells carrying homozygous WT and L2185A mutant mTOR allele were treated with a single dose of AZD8055 (100 nM), INK-128 (100 nM), OSI-027 (6,000 nM), and PP242 (2,000 nM) for different times. Cell growth was measured by SRB assay. The drug carrier DMSO was used as a control. Data represent means±SD in three independent experiments. (FIG. 5C) SW480 cells carrying homozygous WT and L2185A mutant mTOR were treated with various concentrations of INK-128, OSI-027, AZD8055 and PP242 for 1 hr. The effect on the level of P-S6K, S6K, P-4E-BP1, 4EB-P1, P-AKT and AKT was analyzed by immunoblot. […] The growth of SW480 cells was measured by SRB assay. Data represent means±SD in three independent experiments.
(§1) Antibodies against tubulin, S6K, phospho-S6K (Thr389), 4E-BP1, phospho-4E-BP1 (Thr37/46), Akt, phospho-Akt (Thr308), and phospho-Akt (Ser473) were purchased from Cell Signaling Technology. […] Cell growth was measured by the sulforhodamine B (SRB) assay as previously described (Vichai, V., and Kirtikara, K. (2006). Nature protocols 1, 1112-1116).

[3] = test system: SW480 colorectal cancer cells carrying L2185A mutant mTOR alleles; experiment: SRB growth assay of SW480 cells carrying L2185A mutant mTOR; conditions: various concentrations, 2 day
Description: (FIG. 5A) SW480 cells carrying homozygous WT mTOR or L2185A mutant alleles were treated with various concentrations of AZD8055, INK-128, OSI-027 and PP242 for 2 day. Growth of SW480 cells was measured by SRB assay. Data represent means±SD in three independent experiments. (FIG. 5B) SW480 cells carrying homozygous WT and L2185A mutant mTOR allele were treated with a single dose of AZD8055 (100 nM), INK-128 (100 nM), OSI-027 (6,000 nM), and PP242 (2,000 nM) for different times. Cell growth was measured by SRB assay. The drug carrier DMSO was used as a control. Data represent means±SD in three independent experiments. (FIG. 5C) SW480 cells carrying homozygous WT and L2185A mutant mTOR were treated with various concentrations of INK-128, OSI-027, AZD8055 and PP242 for 1 hr. The effect on the level of P-S6K, S6K, P-4E-BP1, 4EB-P1, P-AKT and AKT was analyzed by immunoblot. […] The growth of SW480 cells was measured by SRB assay. Data represent means±SD in three independent experiments. […]
as §1

Compound: COc1cccc2cc(-c3nc([C@H]4CC[C@H](C(=O)O)CC4)n4ncnc(N)c34)[nH]c12 [OSI-027]
- drug resistance of mTOR signaling (P-S6K, P-4E-BP1, P-AKT) with Flag-mTOR(L2185A) [1]: confers resistance
- drug resistance of mTORC1 and mTORC2 signaling, SW480 L2185A vs WT [2]: drug-resistant signaling by both mTORC1 and mTORC2
- drug resistance/sensitivity of cell growth, SW480 L2185A vs WT [3]: confers resistance
